The record followed here is US6800775B1, “Metal complexes of tripodal ligands” (Ciba Specialty Chemicals Corporation, priority 1999, dated 2004).

Molecules are shown by their SMILES.

Data set [1] can be described thus: Dye damage on coloured laundry (dye loss after fivefold treatment).
The nature of data set [2]: Fibre damage on dyed materials (relative DP reduction after fivefold treatment).
Where [3] appears, read: Direct Blue 085, catalyst 50 μmol/l.
Where [4] appears, read: Reactive Black 005, catalyst 50 μmol/l.
Where [5] appears, read: Reactive Brown 017, catalyst 50 μmol/l.
Setting [6] is: Reactive Red 123, catalyst 50 μmol/l.
The mark [7] stands for this setting: Vat Blue 004, catalyst 50 μmol/l.
Setting [8] is: Vat Brown 001, catalyst 50 μmol/l.

Take `CC(=O)N(CCN(C(C)=O)C(C)=O)C(C)=O` [TAED, N,N,N′,N′-tetraacetylethylenediamine]: the Dye loss % in data set [1] (setting [3]) is 15%; in data set [1] (setting [4]), 25%; in data set [1] (setting [5]), 15%; in data set [1] (setting [6]), 10%; in data set [1] (setting [7]), 5%; in data set [1] (setting [8]) it was 5%. Also, the “relative DP reduction %” value in data set [2] (setting [3]) was determined as 5%; in data set [2] (setting [4]), 5%; in data set [2] (setting [5]), 15%; in data set [2] (setting [6]), 0%; in data set [2] (setting [7]) it was 0%; in data set [2] (setting [8]), 5%.
